In PubChem BioAssay AID2284356 (EPA ToxCast):
The inconclusive results got no clear call from the source. Where the call is inconclusive, the potency comes from a doubtful curve fit.

Protein sequences, listed by entry. Tags and fused reporters are not part of them. Lines headed by an entry give the natural chain unless they say otherwise; changes in a name come on top.
UniProt P57717: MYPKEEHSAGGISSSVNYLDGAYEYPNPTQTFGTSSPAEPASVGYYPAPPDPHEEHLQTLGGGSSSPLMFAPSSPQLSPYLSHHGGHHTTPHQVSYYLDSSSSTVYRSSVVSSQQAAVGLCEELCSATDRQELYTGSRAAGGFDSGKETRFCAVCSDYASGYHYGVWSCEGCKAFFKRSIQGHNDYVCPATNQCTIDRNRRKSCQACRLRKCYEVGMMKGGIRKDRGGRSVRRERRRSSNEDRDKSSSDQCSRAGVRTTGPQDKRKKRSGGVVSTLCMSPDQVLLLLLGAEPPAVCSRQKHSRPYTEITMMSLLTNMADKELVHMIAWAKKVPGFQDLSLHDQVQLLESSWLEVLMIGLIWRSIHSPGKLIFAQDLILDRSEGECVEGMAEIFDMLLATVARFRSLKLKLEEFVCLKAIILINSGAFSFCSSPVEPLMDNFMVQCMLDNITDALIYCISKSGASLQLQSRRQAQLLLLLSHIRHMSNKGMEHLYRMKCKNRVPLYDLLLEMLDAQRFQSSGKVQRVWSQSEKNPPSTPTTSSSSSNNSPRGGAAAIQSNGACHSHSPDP

Target: zebrafish Estrogen Receptor (ER1), esr1 (gene 259252) (UniProt P57717)
Experiment: ATG_zfER1_EcoTox2: Attagene TRANS-FACTORIAL EcoTox-2 HepG2 Assay for zebrafish Estrogen Receptor (ER1); active = hit-call score of the fitted dose curve at least 0.9, where 1 is the maximum; inconclusive = response in the unintended direction; inactive = score below 0.9
Experimental: ATG_EcoTox2 is a cell-based, multiplexed assay created by modifying the existing Attagene TRANS-FACTORIAL system to include a panel of nuclear receptors from some or all the following species: human (Homo sapiens), african clawed frog (Xenopus laevis), rainbow trout (Oncorhynchus mykiss), japanese medaka (Oryzias latipes), and zebrafish (Danio rerio). The ECOTOX2-FACTORIAL format uses HepG2, a human liver cell line, with measurements taken at 24 hours after chemical dosing in a 24-well plate. ATG_zfER1_EcoTox2 is one of 29 assay components calculated in the ATG_EcoTox2 assay. It is designed to make measurements of mRNA induction, a form of inducible reporter, as detected with fluorescence intensity signals by Reverse transcription polymerase chain reaction (RT-PCR) and Capillary electrophoresis technology.The assay endpoint ATG_zfER1_EcoTox2 was analyzed in the positive analysis fitting direction relative to DMSO as the negative control and baseline of activity. Using a type of inducible reporter, measures of mRNA for gain-of-signal activity can be used to understand the reporter gene at the transcription factor-level as they relate to the gene ER. Furthermore, this assay endpoint can be referred to as a primary readout, because this assay has produced multiple assay endpoints where this one serves a reporter gene function. To generalize the intended target to other relatable targets, this assay endpoint is annotated to the nuclear receptor intended target family, where the subfamily is steroidal.
Human liver HepG2 cells are transiently transfected with multiple reporter transcription units (MRTUs) in 6-well plates using FuGene 6 reagent (Roche; 3 ml FuGene/1 mg DNA). The MRTU constructs are regulated by a cis-regulating element (promoter). Each RTU expresses a GAL4-UAS that regulates the transcription of a nearby target reporter gene sequence. A major difference between the CIS and TRANS system is that in CIS activities of endogenous TFs are measured, whereas the TRANS assay evaluates changes in activities of exogenous, chimeric NR-Gal4 proteins. […] At the end of 24 hour incubation, total RNA was isolated using TriZol reagent (Invitrogen). The isolated RNA is then reverse-transcribed using oligo(dT) primer and Mo-MLV reverse transcriptase (Invitrogen) with DNAse I (Ambion) treatment for 30 min. The one-tenth of the produced cDNA was amplified by PCR using Taq DNA polymerase (Invitrogen) and two reporter sequence-specific primers. […] The fragments were purified using Qiaquick PCR columns (Qiagen), analyzed on an ABI 3130xL genetic analyzer (Applied Biosystems) with peak positions identified by using a set of X-rhodamine (ROX)-labeled MapMarker1000 molecular weight standards (BioVentures). […]

SMILES	AC50
O=P(Oc1ccccc1)(Oc1ccccc1)Oc1ccccc1	inconclusive: 50 µM
[Cl][Sn]([c]1ccccc1)([c]1ccccc1)[c]1ccccc1	inconclusive: 2.58 µM
CCCCOCN(C(=O)CCl)c1c(CC)cccc1CC	inconclusive: 50 µM
O=C(O)C(F)(F)C(F)(F)C(F)(F)C(F)(F)C(F)(F)C(F)(F)C(F)(F)F	inconclusive: 19.2 µM
